Reference: patent publication US10946027B2, “Tianeptine oxalate salts and polymorphs” (Tonix Pharma Holdings Limited, priority 2016, dated 2021)
Values after ≈ are worked out from the molar mass of the structure shown. Read-outs that look alike come from different tables or passages of the source.

What was measured:
physchem = settings: thermodynamic from solid
[1] = pH 4.5
[2] = not given; remark: listed apart in the source
[3] = pH 1.2, simulated gastric fluid
[4] = 25° C., 60% RH, 1 day, crimped glass vial
[5] = 25° C., 60% RH, 1 day, open air
[6] = 25° C., 60% RH, 3 days, crimped glass vial
[7] = 25° C., 60% RH, 7 days, crimped glass vial
[8] = 30° C., 65% RH, 1 day, crimped glass vial
[9] = 30° C., 65% RH, 1 day, open air
[10] = 30° C., 65% RH, 3 days, crimped glass vial
[11] = 30° C., 65% RH, 7 days, crimped glass vial
[12] = 40° C., 75% RH, 1 day, crimped glass vial
[13] = 40° C., 75% RH, 1 day, open air
[14] = 40° C., 75% RH, 3 days, crimped glass vial
[15] = 40° C., 75% RH, 7 days, crimped glass vial

SMILES | solubility (physchem; [3]) [µg/mL] | solubility (physchem; pH 4.5, aqueous buffer) [µg/mL] | solubility (physchem; pH 6.8, aqueous buffer) [µg/mL] | water in the sample (KF) [4] [%] | water in the sample (KF) [5] [%] | water in the sample (KF) [6] [%] | water in the sample (KF) [7] [%] | water in the sample (KF) [8] [%] | water in the sample (KF) [9] [%] | water in the sample (KF) [10] [%] | water in the sample (KF) [11] [%] | water in the sample (KF) [12] [%] | water in the sample (KF) [13] [%] | water in the sample (KF) [14] [%] | water in the sample (KF) [15] [%] | water in the sample (KF) (Time 0) [%] | solubility [1] [mg/mL] | further results
CN1c2ccccc2C(NCCCCCCC(=O)O)c2ccc(Cl)cc2S1(=O)=O (racemic) [Tianeptine Hemi-Oxalate Form A] | 702 (≈ 1610 µM) | 317 (≈ 725 µM) | 585 (≈ 1340 µM) | 0.34 | 0.35 | 0.18 | 0.28 | 0.27 | 0.28 | 0.16 | 0.30 | 0.30 | 0.06 | 0.16 | 0.20 | 0.47 | 0.313 (≈ 716 µM) | water in the sample (KF) (25° C., 60% RH, 3 days, open air): 0.28%; water in the sample (KF) (25° C., 60% RH, 7 days, open air): 0.22%; water in the sample (KF) (30° C., 65% RH, 3 days, open air): 0.18%; water in the sample (KF) (30° C., 65% RH, 7 days, open air): 0.30%; water in the sample (KF) (40° C., 75% RH, 3 days, open air): 0.30%; water in the sample (KF) (40° C., 75% RH, 7 days, open air): 0.17%; change of water content (after 7 days, in open air or in a crimped glass vial): practically unchanged; XRPD pattern after slurry experiments ([2]; different solvents or solvent mixtures, different temperature conditions): No significant modifications in the XRPD pattern; thermodynamic stability of the form ([2]; from melting point, slurry experiments and stability tests): the most thermodynamically stable form; crystal form after stability tests ([2]; temperature 25-60° C., relative humidity 0-75%): the crystal form did not
CN1c2ccccc2C(NCCCCCCC(=O)O)c2ccc(Cl)cc2S1(=O)=O (centres unmarked) [Tianeptine Sodium, tianeptine sodium, reference compound] | 4640 | 3680 | 1770 | 2.94 | 13.86 | 2.42 | 2.56 | 2.63 | 14.80 | 2.65 | 2.77 | 2.84 | 16.22 | 2.73 | 2.53 | 3.09 | 2.101 | –
